{"source": "PubChem BioAssay AID1259254 (NCATS, 2017)", "screen": "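Genome-wide screen for genes that prevent DNA re-replication in cancer cells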 (primary screen)", "cell system": "human HCT116 colorectal cancer cells", "knock-down reagent": "single siRNA against human genes", "duration": "3 days", "measured": "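Imaged Hoechst DNA stain sorts each cell into a cycle phase by DNA amount; per plate, G2 fraction set to 0% for non-targeting and 100% for GMNN siRNA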", "reading the numbers": "G2 robust z-score and G2 cells, % of GMNN control: higher = more G2 cells, more excess DNA replication", "hit rule": "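Active siRNAs have a G2 robust z of 5 or more median absolute deviations over the median, which in these data means about 38% or higher of GMNN control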", "note": "The deposit covers about 59,000 reagents; this is a part drawn at random. In the full data, about 1,550 (2.6%) are marked active. 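G2 share is only a proxy for re-replication; each gene was hit by three separate siRNAs, and active genes were retested.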 A number with no mark means an inactive call. The numbers tell different reagents against one gene apart. Further read-outs or replicates are left out here. Not given: the amount of reagent."}
{"gene knocked down":"HEPACAM2 (HEPACAM family member 2)","reagent":1,"G2 robust z-score":-1.21,"G2 cells, % of GMNN control":-5.51}
{"gene knocked down":"HEPACAM2 (HEPACAM family member 2)","reagent":2,"G2 robust z-score":-0.72,"G2 cells, % of GMNN control":-2.1}
{"gene knocked down":"HEPACAM2 (HEPACAM family member 2)","reagent":3,"G2 robust z-score":2.74,"G2 cells, % of GMNN control":22.2}
{"gene knocked down":"CALML5 (calmodulin like 5)","reagent":1,"G2 robust z-score":1.52,"G2 cells, % of GMNN control":13.6}
{"gene knocked down":"CALML5 (calmodulin like 5)","reagent":2,"G2 robust z-score":-1.17,"G2 cells, % of GMNN control":-5.24}
{"gene knocked down":"CALML5 (calmodulin like 5)","reagent":3,"G2 robust z-score":-0.31,"G2 cells, % of GMNN control":0.788}
{"gene knocked down":"TRIM24 (tripartite motif containing 24)","reagent":1,"G2 robust z-score":0.2,"G2 cells, % of GMNN control":4.38}
{"gene knocked down":"TRIM24 (tripartite motif containing 24)","reagent":2,"G2 robust z-score":-0.051,"G2 cells, % of GMNN control":2.61}
{"gene knocked down":"TRIM24 (tripartite motif containing 24)","reagent":3,"G2 robust z-score":-0.903,"G2 cells, % of GMNN control":-3.38}
{"gene knocked down":"ITPA (inosine triphosphatase)","reagent":1,"G2 robust z-score":1.25,"G2 cells, % of GMNN control":11.8}
{"gene knocked down":"ITPA (inosine triphosphatase)","reagent":2,"G2 robust z-score":-1.05,"G2 cells, % of GMNN control":-4.4}
{"gene knocked down":"ITPA (inosine triphosphatase)","reagent":3,"G2 robust z-score":0.0703,"G2 cells, % of GMNN control":3.46}
{"gene knocked down":"LAP3 (leucine aminopeptidase 3)","reagent":1,"G2 robust z-score":0.377,"G2 cells, % of GMNN control":5.62}
{"gene knocked down":"LAP3 (leucine aminopeptidase 3)","reagent":2,"G2 robust z-score":0.82,"G2 cells, % of GMNN control":8.74}
{"gene knocked down":"LAP3 (leucine aminopeptidase 3)","reagent":3,"G2 robust z-score":-0.929,"G2 cells, % of GMNN control":-3.57}
{"gene knocked down":"CPXCR1 (CPX chromosome region candidate 1)","reagent":1,"G2 robust z-score":-1.1,"G2 cells, % of GMNN control":-4.77}
{"gene knocked down":"CPXCR1 (CPX chromosome region candidate 1)","reagent":2,"G2 robust z-score":1.34,"G2 cells, % of GMNN control":12.4}
{"gene knocked down":"CPXCR1 (CPX chromosome region candidate 1)","reagent":3,"G2 robust z-score":0.237,"G2 cells, % of GMNN control":4.63}
{"gene knocked down":"TET3 (tet methylcytosine dioxygenase 3)","reagent":1,"G2 robust z-score":-0.99,"G2 cells, % of GMNN control":-4}
{"gene knocked down":"TET3 (tet methylcytosine dioxygenase 3)","reagent":2,"G2 robust z-score":-0.0944,"G2 cells, % of GMNN control":2.3}
{"gene knocked down":"TET3 (tet methylcytosine dioxygenase 3)","reagent":3,"G2 robust z-score":-0.983,"G2 cells, % of GMNN control":-3.95}
{"gene knocked down":"FRY (FRY microtubule binding protein)","reagent":1,"G2 robust z-score":-0.846,"G2 cells, % of GMNN control":-2.99}
{"gene knocked down":"FRY (FRY microtubule binding protein)","reagent":2,"G2 robust z-score":-0.129,"G2 cells, % of GMNN control":2.06}
{"gene knocked down":"FRY (FRY microtubule binding protein)","reagent":3,"G2 robust z-score":-0.713,"G2 cells, % of GMNN control":-2.05}
{"gene knocked down":"TBL2 (transducin beta like 2)","reagent":1,"G2 robust z-score":0.442,"G2 cells, % of GMNN control":6.07}
{"gene knocked down":"TBL2 (transducin beta like 2)","reagent":2,"G2 robust z-score":-1.38,"G2 cells, % of GMNN control":-6.75}
{"gene knocked down":"TBL2 (transducin beta like 2)","reagent":3,"G2 robust z-score":-0.31,"G2 cells, % of GMNN control":0.787}
{"gene knocked down":"MSANTD2 (Myb/SANT DNA binding domain containing 2)","reagent":1,"G2 robust z-score":0.915,"G2 cells, % of GMNN control":9.41}
{"gene knocked down":"MSANTD2 (Myb/SANT DNA binding domain containing 2)","reagent":2,"G2 robust z-score":2.52,"G2 cells, % of GMNN control":20.7}
{"gene knocked down":"MSANTD2 (Myb/SANT DNA binding domain containing 2)","reagent":3,"G2 robust z-score":-0.687,"G2 cells, % of GMNN control":-1.87}
